Measurements published in PMC9088184.
Results are given in words; binding and its absence hold for the method and conditions named. Binding seen in cells or lysates may run through a third protein. Some entries that bind do so weakly or less than the wild type. For part of these data: Where a sequence is shown, tags or fusion partners need not be part of it.

By UniProt entry, the sequences of proteins in these tests, tags left out.
UniProt P49841: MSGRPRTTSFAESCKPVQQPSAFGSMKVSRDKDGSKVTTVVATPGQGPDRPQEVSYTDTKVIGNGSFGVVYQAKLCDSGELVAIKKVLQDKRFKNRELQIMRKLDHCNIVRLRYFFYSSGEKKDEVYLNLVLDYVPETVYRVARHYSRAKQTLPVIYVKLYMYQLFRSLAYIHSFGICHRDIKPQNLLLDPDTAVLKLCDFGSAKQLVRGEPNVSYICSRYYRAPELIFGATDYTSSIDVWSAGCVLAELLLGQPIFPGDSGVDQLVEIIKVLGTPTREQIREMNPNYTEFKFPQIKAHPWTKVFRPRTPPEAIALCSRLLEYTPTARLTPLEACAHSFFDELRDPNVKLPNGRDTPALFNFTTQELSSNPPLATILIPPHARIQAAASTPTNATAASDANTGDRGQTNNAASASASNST
UniProt O95433: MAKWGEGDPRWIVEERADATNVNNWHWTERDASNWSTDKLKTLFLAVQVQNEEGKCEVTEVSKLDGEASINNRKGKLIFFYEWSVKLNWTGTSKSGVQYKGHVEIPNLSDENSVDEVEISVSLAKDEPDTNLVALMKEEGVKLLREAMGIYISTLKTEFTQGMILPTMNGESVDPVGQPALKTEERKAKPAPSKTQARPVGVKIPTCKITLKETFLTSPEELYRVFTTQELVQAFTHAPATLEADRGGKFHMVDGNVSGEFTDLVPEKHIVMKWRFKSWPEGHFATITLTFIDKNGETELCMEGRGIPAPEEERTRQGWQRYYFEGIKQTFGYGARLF

T1: PGK1-Flag (UniProt P00558)
T1 sequence: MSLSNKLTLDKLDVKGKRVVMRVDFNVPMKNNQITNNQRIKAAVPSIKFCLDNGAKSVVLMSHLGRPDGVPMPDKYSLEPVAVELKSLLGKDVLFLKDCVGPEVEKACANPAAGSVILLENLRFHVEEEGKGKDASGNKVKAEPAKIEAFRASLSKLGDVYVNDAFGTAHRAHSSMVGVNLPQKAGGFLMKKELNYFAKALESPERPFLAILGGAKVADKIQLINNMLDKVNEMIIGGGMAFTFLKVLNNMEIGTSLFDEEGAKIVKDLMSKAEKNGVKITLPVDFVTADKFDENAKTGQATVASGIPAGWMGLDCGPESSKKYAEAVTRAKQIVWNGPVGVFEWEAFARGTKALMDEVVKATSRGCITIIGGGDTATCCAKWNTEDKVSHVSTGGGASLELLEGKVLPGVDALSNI


Key:
PGK1-Flag = target: T1, PGK1-Flag; assay: co-IP; MCF-7ADR cells transfected with 2 μg PGK1-Flag plasmid for 48 h; PGK1-Flag immunoprecipitated with an anti-flag antibody; immunoblot
[1] = target: Glycogen synthase kinase-3β (human (endogenous in MCF-7ADR, 293T, breast cancer tissue)) (UniProt P49841); assay: co-IP; endogenous GSK3β immunoprecipitated from MCF-7ADR cell lysate with an anti-GSK3β antibody (IgG control), protein A/G-agarose, 6 washes (50 mM Tris-HCl, 150 mM NaCl, 1% Triton, pH 7.5); immunoblot

binding (PGK1-Flag) | binding [1] | Molecule
binds | – | Glycogen synthase kinase-3β (from UniProt P49841 1-420)
no binding | – | HOP (from UniProt P31948 1-543)
no binding | no binding | PP5 (protein, UniProt P53041 1-499) MAMAEGERTECAEPPRDEPPADGALKRAEELKTQANDYFKAKDYENAIKFYSQAIELNPSNAIYYGNRSLAYLRTECYGYALGDATRAIELDKKYIKGYYRRAASNMALGKFRAALRDYETVVKVKPHDKDAKMKYQECNKIVKQKAFERAIAGDEHKRSVVDSLDIESMTIEDEYSGPKLEDGKVTISFMKELMQWYKDQKKLHRKCAYQILVQVKEVLSKLSTLVETTLKETEKITVCGDTHGQFYDLLNIFELNGLPSETNPYIFNGDFVDRGSFSVEVILTLFGFKLLYPDHFHLLRGNHETDNMNQIYGFEGEVKAKYTAQMYELFSEVFEWLPLAQCINGKVLIMHGGLFSEDGVTLDDIRKIERNRQPPDSGPMCDLLWSDPQPQNGRSISKRGVSCQFGPDVTKAFLEENNLDYIIRSHEVKAEGYEVAHGGRCVTVFSAPNYCDQMGNKASYIHLQGSDLRPQFHQFTAVPHPNVKPMAYANTLLQLGMM

More lines, now with the values behind:

Molecule | binding (PGK1-Flag) | binding [1]
Aha1 (from UniProt O95433 1-338) | binds | binds
FKBP5 (protein, UniProt Q13451 1-457) MTTDEGAKNNEESPTATVAEQGEDITSKKDRGVLKIVKRVGNGEETPMIGDKVYVHYKGKLSNGKKFDSSHDRNEPFVFSLGKGQVIKAWDIGVATMKKGEICHLLCKPEYAYGSAGSLPKIPSNATLFFEIELLDFKGEDLFEDGGIIRRTKRKGEGYSNPNEGATVEIHLEGRCGGRMFDCRDVAFTVGEGEDHDIPIGIDKALEKMQREEQCILYLGPRYGFGEAGKPKFGIEPNAELIYEVTLKSFEKAKESWEMDTKEKLEQAAIVKEKGTVYFKGGKYMQAVIQYGKIVSWLEMEYGLSEKESKASESFLLAAFLNLAMCYLKLREYTKAVECCDKALGLDSANEKGLYRRGEAQLLMNEFESAKGDFEKVLEVNPQNKAARLQISMCQKKAKEHNERDRRIYANMFKKFAEQDAKEEANKAMGKKTSEGVTNEKGTDSQAMEEEKPEGHV | no binding | no binding
CDC37 (protein, UniProt Q16543 1-378) MVDYSVWDHIEVSDDEDETHPNIDTASLFRWRHQARVERMEQFQKEKEELDRGCRECKRKVAECQRKLKELEVAEGGKAELERLQAEAQQLRKEERSWEQKLEEMRKKEKSMPWNVDTLSKDGFSKSMVNTKPEKTEEDSEEVREQKHKTFVEKYEKQIKHFGMLRRWDDSQKYLSDNVHLVCEETANYLVIWCIDLEVEEKCALMEQVAHQTIVMQFILELAKSLKVDPRACFRQFFTKIKTADRQYMEGFNDELEAFKERVRGRAKLRIEKAMKEYEEEERKKRLGPGGLDPVEVYESLPEELQKCFDVKDVQMLQDAISKMDPTDAKYHMQRCIDSGLWVPNSKASEAKEGEEAGPGDPLLEAVPKTGDEKDVSV | no binding | no binding
P23 (protein, UniProt Q15185 1-160) MQPASAKWYDRRDYVFIEFCVEDSKDVNVNFEKSKLTFSCLGGSDNFKHLNEIDLFHCIDPNDSKHKRTDRSILCCLRKGESGQSWPRLTKERAKLNWLSVDFNNWKDWEDDSDEDMSNFDRFSEMMNNMGGDEDVDLPEVDGADDDSQDSDDEKMPDLE | binds | binds
